Laboratory results taken from US20230192772A1, “ANTIMICROBIAL PEPTIDES AND USES THEREOF” (SORBONNE UNIVERSITE, priority 2016, published 2023).
At least one peptide structure holds a part that was inferred or is arguable (an end, a ring closure or a residue). Ends that are not written are not given here.

Tests used:
[1] = test system: immune cells obtained from mouse bone marrow; assay: Cytotoxic effects on immune cells obtained from mouse bone marrow; type: cell-based; conditions: 12.5 µM; 2 hours
Experimental: The mouse immune cells are obtained from C57BL/6 or Balb/c mouse bone marrow. The peptides are incubated at 37° C., 5% CO2 in the presence of 500,000 immune cells in RPMI medium at varied concentrations for 2 hours. Peptide-free cells are used as the negative control and cells in the presence of DMSO (30%) are used as the positive control. After incubation, the cells are washed then labelled with Trypan blue so as to measure the cell viability by microscope counting. The LC50 is then calculated as being the concentration of DA2N, K12A and DANa peptides inducing the death of 50% of the immune cells.

[2] = test system: immune cell recruitment in the peritoneal cavity; assay: Mouse model of non-infectious peritonitis (thioglycolate 3%); type: in vivo; conditions: 3 i.p. injections, 90 µg/injection/mouse; 36 h
contact eczema = assay: Contact eczema model (DNCB 1%); type: in vivo, mouse; conditions: topical application, 50 µg; for ear thickness: 24-96 hours after re-exposure to DNCB
[3] = test system: psoriatic lesions and angiogenesis of skin; assay: Imiquimod-induced psoriasis model; type: in vivo, balb/c mice; conditions: topical, 10 µg; 6 days of Imiquimod treatment
Experimental: The DA2N and DA2NEQ peptides were tested in an Imiquimod-induced psoriasis model described by Van der Fits (Van der Fits et al. 2009. Journal of immunology. 182(9):5836-5845) on female balb/c mice, aged 7 to 8 weeks.
31 mg of commercial cream containing 5% Imiquimod (Aldara, 3 M Pharmaceuticals) is applied topically on about 2.5 cm of the previously shaven ventral region of the mice for 6 days. The first psoriatic lesions appear on the 3rd day. The peptides resuspended in the cream are applied topically or intravenously (10 µg) for the first 3 days of Imiquimod treatment. Mice with no Imiquimod treatment and/or with no peptide application were used as controls. On the 6th day, the mice are sacrificed and the skin sampled is analysed by microscopy (skin lesions and angiogenesis).

mouse aortic rings = assay: Aortic ring model of neo-vessel formation; type: cell-based; conditions: 12.5 µM; D0 to D3; compared to PBS
[4] = test system: Enterococcus faecalis CIP 103015; assay: MIC/MBC (Example 10, MH medium); type: cell-based; conditions: Table 4
Experimental: (§1) The MIC is determined using a growth inhibition test in liquid medium. The MIC is defined as being the lowest peptide concentration capable of inhibiting the bacterial strain tested, after incubation for 18 h at 37° C. The test was carried out in a sterile microtitration plate containing 96 wells. A series of increasing concentrations of each peptide (0.2 to 100 µM) was prepared beforehand in sterile MilliQ water. In each well, 10 µL of peptide was incubated with 90 µL of bacterial suspension (10^7 cfu/mL) in yeast extract-free LB medium. The microplate was incubated at 37° C. for 18 h. The bacterial growth was evaluated by measuring the OD at 620 nm using a plate reader.
(§2) The negative growth inhibition control was obtained by replacing the solution containing the peptide by sterile MilliQ water. The positive control suitable for completely inhibiting the growth of the bacterial strains was obtained by replacing the solution containing the peptide by 10 µL of formaldehyde.
(§3) The results are interpreted by calculating the percentage of bacterial growth in each well according to the formula:
(§4) %Growth = (OD well - OD of T0)/(OD of T100-OD of T0)*100 where
(§5) • OD of T100 = OD of growth control (bacterial suspension free from sample under test, 100% growth), • OD of T0 = OD of sterility control (culture medium + bacterium + 10 µL formaldehyde, 0% growth) and • OD well = OD of well for which it is sought to calculate the growth percentage (bacterial suspension + peptide under test).
(§6) The MBC is defined as being the minimum peptide concentration leaving no surviving bacteria of the inoculum after incubation at 37° C. for 24 hours. This test consists of smearing the contents of the well wherein the peptide has inhibited bacterial growth on a Petri dish (LB agar), followed by incubation for 24 h at 37° C.
(§7) A 10 mL preculture in Muller-Hinton (MH) medium is prepared by inoculating a colony of the bacterial strain of interest. The preculture is incubated at 37° C. under stirring overnight. The culture is subcultured to 1:100 under the same conditions. The culture concentration is evaluated by measuring the turbidity at 600 nm (OD600 nm 1.0 = 5 × 10^8 CFU/mL for E. coli (Gram-negative bacteria) and 1.5 × 10^8 CFU/mL for S. aureus (Gram-positive bacteria). Once the exponential growth phase (OD600 nm = 0.3 - 0.7) has been achieved, the cultures are diluted in MH medium so as to obtain 10^6 CFU/mL (final inoculum concentration).
(§8) The MIC and the MBC were determined as per the protocol described in part 2.1 of Example 2.

[5] = test system: Enterococcus faecalis CIP A186; assay: MIC/MBC (Example 10, MH medium); type: cell-based; conditions: Table 4
Experimental: as §1, §2, §3, §4, §5, §6, §7, §8

[6] = test system: Escherichia coli ATCC 8739; assay: MIC/MBC (Example 10, MH medium); type: cell-based; conditions: Table 4
Experimental: as §1, §2, §3, §4, §5, §6, §7, §8

Escherichia coli K12 = assay: MIC/MBC (Example 10, MH medium); type: cell-based; conditions: Table 4
Experimental: as §1, §2, §3, §4, §5, §6, §7, §8

Escherichia coli ML35p = assay: MIC/MBC (Example 10, MH medium); type: cell-based; conditions: Table 4
Experimental: as §1, §2, §3, §4, §5, §6, §7, §8

[7] = test system: Escherichia coli P7 (ESBL); assay: MIC/MBC (Example 10, MH medium); type: cell-based; conditions: Table 4
Experimental: as §1, §2, §3, §4, §5, §6, §7, §8

[8] = test system: Klebsiella oxytoca CIP 7932; assay: MIC/MBC (Example 10, MH medium); type: cell-based; conditions: Table 4
Experimental: as §1, §2, §3, §4, §5, §6, §7, §8

[9] = test system: Klebsiella pneumoniae CIP 52.211; assay: MIC/MBC (Example 10, MH medium); type: cell-based; conditions: Table 4
Experimental: as §1, §2, §3, §4, §5, §6, §7, §8

[10] = test system: Kocuria rhizophila ATCC 9341; assay: MIC/MBC (Example 10, MH medium); type: cell-based; conditions: Table 4
Experimental: as §1, §2, §3, §4, §5, §6, §7, §8

[11] = test system: Lactococcus garviae ATCC 43921; assay: MIC/MBC (Example 10, MH medium); type: cell-based; conditions: Table 4
Experimental: as §1, §2, §3, §4, §5, §6, §7, §8

[12] = test system: Listeria monocytogenes SOR 100; assay: MIC/MBC (Example 10, MH medium); type: cell-based; conditions: Table 4
Experimental: as §1, §2, §3, §4, §5, §6, §7, §8

[13] = test system: Pseudomonas aeruginosa ATCC 27853; assay: MIC/MBC (Example 10, MH medium); type: cell-based; conditions: Table 4
Experimental: as §1, §2, §3, §4, §5, §6, §7, §8

[14] = test system: Pseudomonas aeruginosa ATCC 9027; assay: MIC/MBC (Example 10, MH medium); type: cell-based; conditions: Table 4
Experimental: as §1, §2, §3, §4, §5, §6, §7, §8

[15] = test system: Salmonella enterica CIP 8297; assay: MIC/MBC (Example 10, MH medium); type: cell-based; conditions: Table 4
Experimental: as §1, §2, §3, §4, §5, §6, §7, §8

[16] = test system: Staphylococcus aureus ATCC 6538; assay: MIC/MBC (Example 10, MH medium); type: cell-based; conditions: Table 4
Experimental: as §1, §2, §3, §4, §5, §6, §7, §8

[17] = test system: Staphylococcus aureus MRSA; assay: MIC/MBC (Example 10, MH medium); type: cell-based; conditions: Table 4
Experimental: as §1, §2, §3, §4, §5, §6, §7, §8

[18] = test system: Staphylococcus aureus ST 1065; assay: MIC/MBC (Example 10, MH medium); type: cell-based; conditions: Table 4
Experimental: as §1, §2, §3, §4, §5, §6, §7, §8

[19] = test system: Staphylococcus epidermidis BM 3302; assay: MIC/MBC (Example 10, MH medium); type: cell-based; conditions: Table 4
Experimental: as §1, §2, §3, §4, §5, §6, §7, §8

[20] = test system: Vibrio parahemolyticus IFREMER 01/252; assay: MIC/MBC (Example 10, MH medium); type: cell-based; conditions: Table 4
Experimental: as §1, §2, §3, §4, §5, §6, §7, §8

[21] = test system: Yersinia ruckeri ATCC 29473; assay: MIC/MBC (Example 10, MH medium); type: cell-based; conditions: Table 4
Experimental: as §1, §2, §3, §4, §5, §6, §7, §8

[22] = test system: Bacillus subtilis CIP 52.65; assay: MIC/MBC (Example 10, MH medium); type: cell-based; conditions: Table 4

ALWKTLLKKVGKVAGKAVLNAVTNMANQN-NH2 [DA2Na]
death of immune cells [1]: induce the death of immune cells at a concentration of 12.5 µM with a comparable efficacy to DA2N

ALWKTLLKKVGKVAGKAVLNAVTNMANQN-OH [DA2N]
neutrophil and monocyte/macrophage recruitment in the peritoneal cavity [2]: reduction in neutrophil and monocyte/macrophage recruitment
ear thickness (contact eczema): reduction in ear thickness
number of immune cells in ear, blood and bone marrow (contact eczema; 24 h after re-exposure to DNCB): reduction in the number of monocytes, dendritic cells and neutrophils
neo-vessel formation (angiogenesis) in psoriatic skin [3]: appear to reduce neo-vessel formation
psoriatic lesions [3]: reduces the psoriatic lesions
neo-vessel formation from aortic rings (mouse aortic rings): inhibits neo-vessel formation significantly
MBC [4]: 6.3
MIC [4]: 6.3
MBC [5]: >50
MIC [5]: 50
MBC [6]: 0.8
MIC [6]: 0.8
MBC (Escherichia coli K12): 6.3
MIC (Escherichia coli K12): 3.12
MBC (Escherichia coli ML35p): 0.8
MIC (Escherichia coli ML35p): 0.8
MBC [7]: 12.5
MIC [7]: 1.6
MBC [8]: 6.25
MIC [8]: 3.12
MBC [9]: 0.8
MIC [9]: 0.8
MBC [10]: 1.6
MIC [10]: 0.8
MBC [11]: 50
MIC [11]: 25
MBC [12]: 25
MIC [12]: 25
MBC [13]: 50
MIC [13]: 12.5
MBC [14]: 3.12
MIC [14]: 3.12
MBC [15]: 25
MIC [15]: 12.5
MBC [16]: 3.12
MIC [16]: 1.6
MBC [17]: >50
MIC [17]: 25
MBC [18]: 6.3
MIC [18]: 6.3
MBC [19]: 25
MIC [19]: 6.3
MBC [20]: >50
MIC [20]: >50
MBC [21]: 12.5
MIC [21]: 3.12
MBC [22]: 6.25
MIC [22]: 6.25

ALWKTLLKKVGKVAGKAVLNAVTNMANQNEQ [DA2NEQ, ALWKTLLKKVGKVAGKAVLNAVTNMANQNEQOH]
neutrophil and monocyte/macrophage recruitment in the peritoneal cavity [2]: reduction in neutrophil and monocyte/macrophage recruitment
ear thickness (contact eczema): reduction in ear thickness
neo-vessel formation (angiogenesis) in psoriatic skin [3]: appear to reduce neo-vessel formation
neo-vessel formation from aortic rings (mouse aortic rings): inhibits neo-vessel formation significantly
MBC [4]: 12.5
MIC [4]: 12.5
MBC [5]: >100
MIC [5]: 100
MBC [6]: 1.6
MIC [6]: 1.6
MBC (Escherichia coli K12): 12.5
MIC (Escherichia coli K12): 12.5
MBC (Escherichia coli ML35p): 1.6
MIC (Escherichia coli ML35p): 1.6
MBC [7]: 50
MIC [7]: 12.5
MBC [8]: >100
MIC [8]: 12.5
MBC [9]: 0.8
MIC [9]: 0.8
MBC [10]: 1.6
MIC [10]: 1.6
MBC [11]: >100
MIC [11]: 100
MBC [12]: >100
MIC [12]: 100
MBC [13]: >100
MIC [13]: 50
MBC [14]: 6.3
MIC [14]: 6.3
MBC [15]: 100
MIC [15]: 50
MBC [16]: 12.5
MIC [16]: 6.3
MBC [17]: >100
MIC [17]: 100
MBC [18]: 25
MIC [18]: 12.5
MBC [19]: >50
MIC [19]: 12.5
MBC [20]: >100
MIC [20]: >100
MBC [21]: >100
MIC [21]: 25
MIC [22]: 25
